Results published in US20140017187A1, “Use of 5-(7-methoxy-3,3-dimethyl-2,3-dihydro-1-benzoxepin-5-yl)-3-methyl-penta-2,4-dienoic acid as a cosmetic” (Merck Patent GmbH, priority 2008, published 2014).

Test system: human skin model
Assay: cDNA microarray gene expression profiling (Affymetrix) of treated skin equivalents, GeneGO MetaCore analysis
Type: cell-based
Protocol: One of the advantages of cDNA microarray is the possibility to observe the expression pattern of the whole genes and compare with different conditions. This is the first study to determine the gene expression profiles of Compound-treated human skin. For the analysis of deregulated gene expression induced by substance Compound, treated and control samples from a human skin model were analyzed with Affymetrix oligonucleotide microarrays. Skin has been among the first organs analysed using DNA-Microarrays. In addition, epidermal keratinocytes have been the target of many studies because they respond to a rich variety of inflammatory and immunmodulating cytokines, hormones, vitamins, ultraviolet (UV) light, toxins and physical injury. Altered gene expression after applying substance Compound was analysed with an Affymetrix system.
For gene expression studies skin equivalents were treated with 50 μL of 2 relevant substance Compound with a concentration of c=50 μM in PBS-buffer/DMSO. Buffer-treated skin equivalents served as controls.
A ratio (log 2) value of zero indicates no regulation, whereas positive (log 2) values indicate an upregulation and negative (log 2) values a downregulation of the relevant gene.
The experiment contains 759 genes with the specified threshold (Appendix A)
GeneGO's Metacore (Pathways and Maps) Software. […]

COc1ccc2c(c1)C(/C=C/C(C)=C/C(=O)O)=CC(C)(C)CO2 [Compound, 5-(7-methoxy-3,3-dimethyl-2,3-dihydro-1-benzoxepin-5-yl)-3-methyl-penta-2,4-dienoic acid]
number of top 100 upregulated genes with at least one strong (high scored) site of PPAR: 14
